PubChem BioAssay AID1259405, NCATS | 2018

Screen: 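Knock-downs that lift recombinant protein yield in hamster ovary cells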 (primary screen)
Cell system: Chinese hamster CHO-K1 ovary cells with stable secreted eGFP expression
Reagent: single siRNA against mouse genes, 0.8 pmol siRNA per well (2 µl of 400 nM stock)
Duration: 3 days
Read-out: 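Per-well intracellular GFP measured by laser scanning cytometry, plus viability from ATP luminescence, each relative to plate median of non-targeting control wells, in %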
Reading the numbers: GFP, % of control: higher = more GFP per well, higher productivity; viability (ATP), % of control: higher = more viable cells (more ATP)
Hit rule: 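Called active when intracellular GFP, relative to negative control, is at or above 120%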
Shown is one part, drawn at random, of about 50,000 deposited reagents. Of all reagents, about 4,000 (8%) were called active. 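Mouse siRNA library applied to hamster cells; one well for each siRNA.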 Unmarked entries are inactive. The numbers tell different reagents against one gene apart. Reagent sequences are not shown.

Unc80 (unc-80, NALCN activator) #1 → GFP, % of control = 33.3; viability (ATP), % of control = 50.9
Unc80 (unc-80, NALCN activator) #2 → GFP, % of control = 49; viability (ATP), % of control = 81.8
Unc80 (unc-80, NALCN activator) #3 → GFP, % of control = 102; viability (ATP), % of control = 101
Acot4 (acyl-CoA thioesterase 4) #1 → GFP, % of control = 84.6; viability (ATP), % of control = 81
Acot4 (acyl-CoA thioesterase 4) #2 → GFP, % of control = 83.3; viability (ATP), % of control = 69.7
Or2g1 (olfactory receptor family 2 subfamily G member 1) #1 → GFP, % of control = 83.9; viability (ATP), % of control = 78.4
Or2g1 (olfactory receptor family 2 subfamily G member 1) #2 → GFP, % of control = 98.7; viability (ATP), % of control = 81.2
Or2g1 (olfactory receptor family 2 subfamily G member 1) #3 → GFP, % of control = 63.1; viability (ATP), % of control = 75.2
Or5p76 (olfactory receptor family 5 subfamily P member 76) #1 → GFP, % of control = 67.2; viability (ATP), % of control = 42.1
Or5p76 (olfactory receptor family 5 subfamily P member 76) #2 → GFP, % of control = 47.4; viability (ATP), % of control = 66.3
Or5p76 (olfactory receptor family 5 subfamily P member 76) #3 → GFP, % of control = 0.0288; viability (ATP), % of control = 26.5
Ppp4r3a (protein phosphatase 4 regulatory subunit 3A) #1 → GFP, % of control = 90.2; viability (ATP), % of control = 94.5
Ppp4r3a (protein phosphatase 4 regulatory subunit 3A) #2 → GFP, % of control = 44.8; viability (ATP), % of control = 58.2
Ppp4r3a (protein phosphatase 4 regulatory subunit 3A) #3 → GFP, % of control = 99.1; viability (ATP), % of control = 107
Urgcp (upregulator of cell proliferation) #1 → GFP, % of control = 81.7; viability (ATP), % of control = 95.1
Urgcp (upregulator of cell proliferation) #2 → GFP, % of control = 63.4; viability (ATP), % of control = 54.6
Urgcp (upregulator of cell proliferation) #3 → GFP, % of control = 58.4; viability (ATP), % of control = 83.3
